PMC10170703
Results are given in words; binding and its absence hold for the method and conditions named. Where a sequence is shown, tags or fusion partners need not be part of it.

How the values were obtained:
Assay in all cases: two-hybrid; GAL4-based, pGADT7 preys and pGBKT7 baits in Y2HGold; growth on SD/-LT and SD/-LTHA
[1] = target: T1, BD-RPS4 TIR domain (residues 1-183) (UniProt Q9XGM3)
T1 sequence: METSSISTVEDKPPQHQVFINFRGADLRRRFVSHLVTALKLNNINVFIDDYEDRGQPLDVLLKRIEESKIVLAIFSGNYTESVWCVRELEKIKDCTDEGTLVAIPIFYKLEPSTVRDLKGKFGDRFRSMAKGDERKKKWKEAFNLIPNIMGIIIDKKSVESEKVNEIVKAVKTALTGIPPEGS

[2] = target: T2, BD-L6 TIR domain (residues 29-248) (UniProt Q40253)
T2 sequence: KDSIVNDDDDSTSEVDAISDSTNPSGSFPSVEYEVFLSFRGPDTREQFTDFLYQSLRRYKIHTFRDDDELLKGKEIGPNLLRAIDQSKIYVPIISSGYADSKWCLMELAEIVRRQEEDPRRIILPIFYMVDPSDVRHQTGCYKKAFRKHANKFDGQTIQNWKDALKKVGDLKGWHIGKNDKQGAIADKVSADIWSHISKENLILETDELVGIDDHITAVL

[3] = target: T3, BD-RPP1_NdA TIR domain (residues 1-254) (A. thaliana) (UniProt F4J339)
T3 sequence: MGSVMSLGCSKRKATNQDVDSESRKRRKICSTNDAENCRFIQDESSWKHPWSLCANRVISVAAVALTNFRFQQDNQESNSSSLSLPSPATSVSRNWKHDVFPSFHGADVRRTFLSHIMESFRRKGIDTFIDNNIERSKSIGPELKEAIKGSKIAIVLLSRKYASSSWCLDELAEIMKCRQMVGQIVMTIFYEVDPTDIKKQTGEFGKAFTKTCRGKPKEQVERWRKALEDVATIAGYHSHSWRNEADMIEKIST

- binding [1]: no binding
- binding [2]: no binding
- binding [3]: no binding
Substance: AD-TIRP1 (G. hirsutum TIR domain partner protein 1, two-hybrid prey) (Gossypium hirsutum)
